Results deposited as PubChem BioAssay AID1259308 (NCATS, 2017).
This is one part, drawn at random, of about 59,000 reagents tested. Of all reagents, about 1,510 (2.6%) are marked active. 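Calls use total luciferase alone and ignore viability, so some active siRNAs may act by altering cell number.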

Aim: 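Candidate targets for better recombinant protein yield in mammalian cells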 (primary screen)
System: human HEK293 embryonic kidney cells stably expressing firefly luciferase (HEK-CMV-Luc2-Hygro)
Reagents: single siRNA against human genes, 0.8 pmol siRNA per well
Timing: 72 h
Detection: 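Luciferase light (ONE-Glo) measured on one replicate plate set and viability (CellTiter-Glo) on the other, scaled to a negative control siRNA, with robust z-scores and luciferase per cell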
Direction: total luciferase, z-score and total luciferase, % of control: higher = more reporter protein produced; luciferase per cell, z-score: higher = more reporter output per viable cell; viable cells, % of control: higher = more viable cells
Hit rule: 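Active when the median/MAD z-score for overall luciferase is greater than 3; a gene was taken forward for validation with new siRNAs if at least two of its three siRNAs passed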
Calls: active = raised luciferase; inactive = no rise

| Target gene | PubChem SID | total luciferase, z-score | total luciferase, % of control | luciferase per cell, z-score | viable cells, % of control | call |
| --- | --- | --- | --- | --- | --- | --- |
| ST3GAL3 (GeneID 6487) | SID160716731 | -1.24 | 57.2 | -1.47 | 94.3 | inactive |
| ST3GAL3 (GeneID 6487) | SID160716732 | 2.55 | 133 | 1.59 | 97.6 | inactive |
| ST3GAL3 (GeneID 6487) | SID160716733 | -0.599 | 70 | -1.02 | 102 | inactive |
| TAF8 (GeneID 129685) | SID160756890 | 0.516 | 92.1 | 0.23 | 96.9 | inactive |
| TAF8 (GeneID 129685) | SID160756891 | 0.896 | 99.7 | 1.56 | 73.9 | inactive |
| TAF8 (GeneID 129685) | SID160756892 | 0.973 | 101 | 0.713 | 93.8 | inactive |
| C1S (GeneID 716) | SID160729603 | 0.281 | 87.5 | 0.808 | 79 | inactive |
| C1S (GeneID 716) | SID160729614 | 0.125 | 84.4 | 0.0436 | 93.2 | inactive |
| C1S (GeneID 716) | SID160729623 | -0.756 | 66.8 | 0.00313 | 74.6 | inactive |
| FAM8A1 (GeneID 51439) | SID160740814 | 3.14 | 144 | 1.54 | 108 | active |
| FAM8A1 (GeneID 51439) | SID160740815 | 0.626 | 94.3 | 0.465 | 93.3 | inactive |
| FAM8A1 (GeneID 51439) | SID160740816 | 0.626 | 94.3 | 0.169 | 101 | inactive |
| TRIML1 (GeneID 339976) | SID160764341 | -1.03 | 61.4 | -1.2 | 94.2 | inactive |
| TRIML1 (GeneID 339976) | SID160764342 | 1.09 | 104 | 0.475 | 102 | inactive |
| TRIML1 (GeneID 339976) | SID160764343 | 0.372 | 89.3 | 0.235 | 93.8 | inactive |
| JPT2 (GeneID 90861) | SID160753831 | -0.338 | 75.2 | 0.025 | 83.5 | inactive |
| JPT2 (GeneID 90861) | SID160753832 | -0.428 | 73.4 | -0.686 | 98.2 | inactive |
| JPT2 (GeneID 90861) | SID160753833 | -0.322 | 75.5 | 0.209 | 79.8 | inactive |
| SETD1A (GeneID 9739) | SID160722954 | -0.554 | 70.9 | -0.46 | 89.4 | inactive |
| SETD1A (GeneID 9739) | SID160722955 | 0.00827 | 82.1 | -0.154 | 95.5 | inactive |
| SETD1A (GeneID 9739) | SID160722957 | -0.451 | 72.9 | 0.426 | 72.8 | inactive |
| CDH17 (GeneID 1015) | SID160740801 | -0.729 | 67.4 | -1.08 | 100 | inactive |
| CDH17 (GeneID 1015) | SID160740812 | 1.57 | 113 | 0.798 | 102 | inactive |
| CDH17 (GeneID 1015) | SID160740822 | -0.846 | 65.1 | 0.323 | 66.8 | inactive |
| IQCF3 (GeneID 401067) | SID160725337 | -0.135 | 79.2 | -1.09 | 118 | inactive |
| IQCF3 (GeneID 401067) | SID160767133 | -0.105 | 79.8 | 0.0209 | 88.7 | inactive |
| IQCF3 (GeneID 401067) | SID160767134 | 0.0221 | 82.3 | -0.195 | 96.8 | inactive |
| ERF (GeneID 2077) | SID160761726 | -0.581 | 70.3 | -1.14 | 106 | inactive |
| ERF (GeneID 2077) | SID160761736 | -1.17 | 58.5 | -0.894 | 82.8 | inactive |
| ERF (GeneID 2077) | SID160761747 | 0.773 | 97.3 | 0.585 | 93.2 | inactive |
| AKR7L (GeneID 246181) | SID160762001 | 0.343 | 88.7 | 0.143 | 95.5 | inactive |
| AKR7L (GeneID 246181) | SID160762002 | -0.182 | 78.3 | 0.734 | 72.1 | inactive |
| AKR7L (GeneID 246181) | SID160762003 | -0.531 | 71.3 | -0.111 | 82.1 | inactive |
| NDFIP1 (GeneID 80762) | SID160750538 | 0.921 | 100 | 1.46 | 76.2 | inactive |
| NDFIP1 (GeneID 80762) | SID160750539 | -0.294 | 76 | -0.417 | 94.8 | inactive |
| NDFIP1 (GeneID 80762) | SID160750540 | -0.631 | 69.3 | -1.21 | 107 | inactive |

A run of entries of the results above, for reference:
| Target gene | PubChem SID | total luciferase, z-score | total luciferase, % of control | luciferase per cell, z-score | viable cells, % of control | call |
| --- | --- | --- | --- | --- | --- | --- |
| C1S (GeneID 716) | SID160729614 | 0.125 | 84.4 | 0.0436 | 93.2 | inactive |
| C1S (GeneID 716) | SID160729623 | -0.756 | 66.8 | 0.00313 | 74.6 | inactive |
| FAM8A1 (GeneID 51439) | SID160740814 | 3.14 | 144 | 1.54 | 108 | active |
| FAM8A1 (GeneID 51439) | SID160740815 | 0.626 | 94.3 | 0.465 | 93.3 | inactive |
| FAM8A1 (GeneID 51439) | SID160740816 | 0.626 | 94.3 | 0.169 | 101 | inactive |
| TRIML1 (GeneID 339976) | SID160764341 | -1.03 | 61.4 | -1.2 | 94.2 | inactive |
| TRIML1 (GeneID 339976) | SID160764342 | 1.09 | 104 | 0.475 | 102 | inactive |
| TRIML1 (GeneID 339976) | SID160764343 | 0.372 | 89.3 | 0.235 | 93.8 | inactive |
| JPT2 (GeneID 90861) | SID160753831 | -0.338 | 75.2 | 0.025 | 83.5 | inactive |
| JPT2 (GeneID 90861) | SID160753832 | -0.428 | 73.4 | -0.686 | 98.2 | inactive |
| JPT2 (GeneID 90861) | SID160753833 | -0.322 | 75.5 | 0.209 | 79.8 | inactive |
| SETD1A (GeneID 9739) | SID160722954 | -0.554 | 70.9 | -0.46 | 89.4 | inactive |

The listing continues:
| Target gene | PubChem SID | total luciferase, z-score | total luciferase, % of control | luciferase per cell, z-score | viable cells, % of control | call |
| --- | --- | --- | --- | --- | --- | --- |
| CSMD2 (GeneID 114784) | SID160754964 | -0.879 | 64.4 | -0.361 | 79.2 | inactive |
| CSMD2 (GeneID 114784) | SID160754965 | 1.25 | 107 | 1.17 | 87.7 | inactive |
| CSMD2 (GeneID 114784) | SID160754966 | 0.0183 | 82.3 | -0.657 | 109 | inactive |
| PPP2R2D (GeneID 55844) | SID160731535 | -0.161 | 78.7 | -0.646 | 104 | inactive |
| PPP2R2D (GeneID 55844) | SID160744502 | 0.198 | 85.8 | -0.208 | 101 | inactive |
| PPP2R2D (GeneID 55844) | SID160744503 | -2.1 | 40.1 | -1.44 | 65.4 | inactive |
| ITGB1BP1 (GeneID 9270) | SID160721852 | 0.406 | 90 | -0.298 | 109 | inactive |
| ITGB1BP1 (GeneID 9270) | SID160721853 | -1.58 | 50.4 | -1.73 | 89 | inactive |
| ITGB1BP1 (GeneID 9270) | SID160735200 | -0.416 | 73.6 | 0.0423 | 81.3 | inactive |
| ZNF583 (GeneID 147949) | SID160758609 | -0.0745 | 80.4 | -0.663 | 107 | inactive |
| ZNF583 (GeneID 147949) | SID160758610 | -0.144 | 79 | -0.189 | 92.8 | inactive |
| ZNF583 (GeneID 147949) | SID160758611 | -0.226 | 77.4 | -0.596 | 101 | inactive |
| DDX20 (GeneID 11218) | SID160730215 | -0.162 | 78.7 | -0.522 | 101 | inactive |
| DDX20 (GeneID 11218) | SID160730216 | -0.294 | 76 | -0.545 | 98.1 | inactive |
| DDX20 (GeneID 11218) | SID160730217 | 0.22 | 86.3 | -0.079 | 98.4 | inactive |
| GRAPL (GeneID 400581) | SID160733315 | -0.891 | 64.2 | -0.687 | 85.9 | inactive |
| GRAPL (GeneID 400581) | SID160766995 | -0.664 | 68.7 | 0.277 | 71.4 | inactive |
| GRAPL (GeneID 400581) | SID160766997 | 0.9 | 99.8 | 1.26 | 80.1 | inactive |
| NRAP (GeneID 4892) | SID160778232 | 1.39 | 110 | 2.63 | 61.3 | inactive |
| NRAP (GeneID 4892) | SID160778233 | 1.12 | 104 | 0.734 | 96 | inactive |
| NRAP (GeneID 4892) | SID160778234 | 1.37 | 109 | 0.653 | 103 | inactive |
| NAALADL1 (GeneID 10004) | SID160723734 | 3.19 | 145 | 2.74 | 79 | active |
| NAALADL1 (GeneID 10004) | SID160723741 | 0.125 | 84.4 | -0.424 | 105 | inactive |
| NAALADL1 (GeneID 10004) | SID160730392 | 2.3 | 128 | 1.21 | 104 | inactive |
| HYAL1 (GeneID 3373) | SID160775483 | -0.436 | 73.2 | 0.353 | 74.6 | inactive |
| HYAL1 (GeneID 3373) | SID160775484 | -1.45 | 53 | -2.05 | 102 | inactive |
| HYAL1 (GeneID 3373) | SID160775485 | 0.43 | 90.4 | 0.405 | 90.8 | inactive |
| SYN3 (GeneID 8224) | SID160719738 | 0.133 | 84.5 | 0.0493 | 93.2 | inactive |
| SYN3 (GeneID 8224) | SID160719739 | -0.645 | 69.1 | -0.652 | 91.6 | inactive |
| SYN3 (GeneID 8224) | SID160719740 | -0.659 | 68.8 | -0.0899 | 78.7 | inactive |
| SLC25A14 (GeneID 9016) | SID160721272 | -0.0171 | 81.5 | 0.558 | 78.7 | inactive |
| SLC25A14 (GeneID 9016) | SID160721273 | 1.33 | 108 | 0.832 | 97.3 | inactive |
| SLC25A14 (GeneID 9016) | SID160721274 | -0.0495 | 80.9 | -0.806 | 112 | inactive |
| PLCB2 (GeneID 5330) | SID160714436 | -0.161 | 78.7 | -0.507 | 101 | inactive |
| PLCB2 (GeneID 5330) | SID160714437 | 0.325 | 88.4 | 0.174 | 94.3 | inactive |
| PLCB2 (GeneID 5330) | SID160714438 | -1.67 | 48.7 | -1.73 | 85.9 | inactive |
| CLCF1 (GeneID 23529) | SID160736483 | -0.612 | 69.7 | 1 | 59.8 | inactive |
| CLCF1 (GeneID 23529) | SID160736484 | -0.0825 | 80.2 | -0.267 | 96.2 | inactive |
| CLCF1 (GeneID 23529) | SID160736485 | -0.894 | 64.1 | -0.288 | 77.3 | inactive |
